Our source for the Kd values is publication PMC4410182 (Nature communications, 2015).

The target in the test is T1, A. borkumensis YdaH (Alcanivorax borkumensis, UniProt Q0VR69).
T1 sequence (Q0VR69 1-492): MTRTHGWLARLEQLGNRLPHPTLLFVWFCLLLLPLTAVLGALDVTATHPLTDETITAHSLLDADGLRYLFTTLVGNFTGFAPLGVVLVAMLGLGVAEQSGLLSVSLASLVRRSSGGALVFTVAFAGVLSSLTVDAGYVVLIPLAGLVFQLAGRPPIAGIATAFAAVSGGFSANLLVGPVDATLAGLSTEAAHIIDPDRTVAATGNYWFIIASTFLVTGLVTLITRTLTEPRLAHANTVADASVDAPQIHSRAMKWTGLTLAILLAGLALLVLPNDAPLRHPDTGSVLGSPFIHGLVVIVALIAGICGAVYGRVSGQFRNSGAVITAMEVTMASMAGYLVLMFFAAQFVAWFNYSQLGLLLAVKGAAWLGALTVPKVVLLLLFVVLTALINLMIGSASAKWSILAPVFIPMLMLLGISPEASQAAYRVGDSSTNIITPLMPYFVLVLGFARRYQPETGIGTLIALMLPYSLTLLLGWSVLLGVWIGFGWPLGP
Put plainly: isothermal titration calorimetry. Format: binding. Background: ITC needs no label: the signal is the heat of the interaction.

As usually defined, the Kd is the concentration at which binding is half-saturated. The low end stands for tighter binding, the high end for weaker binding. As to `Nc1ccc(S(N)(=O)=O)cc1` [sulfanilamide], the Kd came out at 4.97 ± 0.26 µM.
